Percent effect of library compounds

Chains of the proteins cited; added tags and fusions are not shown. Residues count along the entry.
UniProt Q4DA54, 1-478: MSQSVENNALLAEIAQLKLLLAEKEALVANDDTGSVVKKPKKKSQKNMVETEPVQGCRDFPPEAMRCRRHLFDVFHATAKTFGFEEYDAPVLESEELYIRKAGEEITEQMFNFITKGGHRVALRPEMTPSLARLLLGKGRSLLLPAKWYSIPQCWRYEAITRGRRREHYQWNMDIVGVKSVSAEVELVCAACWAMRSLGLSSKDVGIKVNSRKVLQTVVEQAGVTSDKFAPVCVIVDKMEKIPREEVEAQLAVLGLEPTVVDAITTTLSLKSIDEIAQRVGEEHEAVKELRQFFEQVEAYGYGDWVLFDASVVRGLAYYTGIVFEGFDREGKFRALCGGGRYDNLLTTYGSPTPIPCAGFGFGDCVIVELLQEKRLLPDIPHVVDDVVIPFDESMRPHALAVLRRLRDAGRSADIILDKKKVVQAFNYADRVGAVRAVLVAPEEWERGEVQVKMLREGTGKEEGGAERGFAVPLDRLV
UniProt P9WPC5, whole entry: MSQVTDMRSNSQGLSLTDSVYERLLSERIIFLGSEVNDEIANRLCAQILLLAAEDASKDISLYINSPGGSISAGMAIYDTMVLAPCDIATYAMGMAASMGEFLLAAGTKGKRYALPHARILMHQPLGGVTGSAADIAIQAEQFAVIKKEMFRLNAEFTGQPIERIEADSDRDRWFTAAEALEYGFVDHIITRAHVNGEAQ
UniProt P9WPC3, whole entry partner: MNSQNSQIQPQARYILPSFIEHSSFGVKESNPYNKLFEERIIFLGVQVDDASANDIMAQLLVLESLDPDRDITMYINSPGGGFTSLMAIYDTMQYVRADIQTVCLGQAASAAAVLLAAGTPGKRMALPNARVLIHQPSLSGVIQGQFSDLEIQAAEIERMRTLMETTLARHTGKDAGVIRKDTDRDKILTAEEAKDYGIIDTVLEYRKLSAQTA

Measurements from “University of Dundee, Small-Polar-MMV Screening Library” (2021), ChEMBL document CHEMBL3988442.

TcHisRS: 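Histidine-tRNA ligase, Trypanosoma cruzi CL Brener (UniProt Q4DA54). Enzyme assay of histidyl-tRNA synthetase; the read-out is not stated. Compounds at 30 µM. The record gives no direction; compounds that gave an IC50 in retests scored well above the rest, so higher reads as stronger inhibition. Size under these conditions: about 69,000 compounds, about 31 of them at 50% or above in at least one test.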
ClpP1P2: 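Protease assay of ClpP1P2, read by the AMC dye that it sets free. Target: ClpP1P2, Mycobacterium tuberculosis (UniProt P9WPC5 and UniProt P9WPC3). Tested at 50 µM. Direction is inferred from only a few compounds that gave an IC50; most scored high, so higher reads as stronger inhibition. Most other retested compounds had strongly negative values. Of about 69,000 compounds tested this way, about 10 (0.015%) reached 50% or more in at least one test.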

Results are given as percent effect.
The controls that fix the scale are not given in the record; negative values are as filed.
The compounds are a random part of those screened.

| # | compound | TcHisRS | ClpP1P2 |
|---|---|---|---|
| 1 | `Cc1cc(C)n(C2CN(Cc3noc(C4CC4)n3)C2)n1` | 2.242 | -18.95 |
| 2 | `O=C(CCC(=O)N1CCOCC1c1ccccc1)c1cccs1` (centres undefined) | 9.639 | -18.44 |
| 3 | `CCOc1ccc2oc(-c3cn(C)nc3C)c(O)c(=O)c2c1` | -5.752 | -22.43 |
| 4 | `CN(CCC1CCOCC1)[C@@H]1c2ccccc2C2(CCNCC2)[C@H]1O` | 1.667 | -7.66 |
| 5 | `COc1cccc(F)c1CN1CCC(c2nccc(C)n2)C1` (centres undefined) | 8.333 | -15.25 |
| 6 | `CN(C(=O)Cc1coc(-c2cccs2)n1)C1(C#N)CCC1` | 1.911 | -0.699 |
| 7 | `Cc1c(COC(C)C)cccc1NC(=O)N1CC[C@H](O)C1` | 13.33 | 0.751 |
| 8 | `Cc1ccc(-n2ccnc2)c(C(=O)NCCOCC2CCCO2)c1` (centres undefined) | 12.26 | 2.885 |
| 9 | `O=C(c1cc(F)ccc1O)N1CCN(C(=O)C2CCC2)CC1` | -1.293 | -9.963 |
| 10 | `Cc1ccc(-c2cc(N)c(=O)n(C(C)C(=O)NC(C)C)n2)o1` (centres undefined) | 3.714 | -10.79 |
| 11 | `CC(C)(C)CN1CCCC2(CCN(C(=O)c3cn[nH]c3)C2)C1` (centres undefined) | 14.84 | 0.7732 |
| 12 | `CN1CCN(C2CCN(CC(O)c3ccccc3F)CC2)C1=O` (centres undefined) | 0 | 11.71 |
| 13 | `CC(C)NC(=O)C1CN(C(=O)N2CCCC2)CC12CCOCC2` (centres undefined) | 6.011 | -3.438 |
| 14 | `CC(C)c1ccc(OCn2ccc(C(=O)N3CCCC3)n2)cc1` | 1.674 | -12.09 |
| 15 | `O=C1CC[C@H]2CN(c3ncccc3F)CC[C@H]2N1CCc1ccccc1` | 0.6494 | 0.04386 |
| 16 | `O=C(Cn1cnnn1)Nc1ccc(F)cc1OCC1CC1` | 3.093 | -7.134 |
| 17 | `COc1cc(F)ccc1NC(=O)NC(C)C(=O)NC(C)(C)C` (centres undefined) | 5.952 | -2.492 |
| 18 | `Cc1cc(C)nc(N2Cc3cnn(Cc4ccc(F)cc4)c3C2)n1` | 5.394 | -10.88 |
| 19 | `N#Cc1cccnc1NC1CCN(c2ccccc2OC(F)F)C1=O` (centres undefined) | 5.882 | 13.01 |
| 20 | `CCC1=N[C@@]2(CC[C@@H]3CN(S(=O)(=O)CC(C)C)C[C@@H]32)C(=O)N1CC1CC1` | 4.301 | 4.532 |
| 21 | `O=C(NCc1cccnc1)C1=NOC2(CCCN(CCO)C2)C1` (centres undefined) | 0.9804 | -9.638 |
| 22 | `COCCCN(C)Cc1nc2c(cnn2C)c(=O)[nH]1` | -1.515 | 8.001 |
| 23 | `Cc1cnn(CCNCC(=O)Nc2ccc(Cl)cn2)c1` | 8.434 | -6.296 |
| 24 | `CCc1ncc(CN(CCc2ccccc2)Cc2cccs2)cn1` | 10.34 | -7.497 |
| 25 | `Cn1c(C(=O)NC(Cc2ccsc2)c2cccnc2)cc(=O)n(C)c1=O` (centres undefined) | 5.639 | -24.07 |
| 26 | `O=C(CO)N1CCCC(c2cc(C(F)(F)F)[nH]n2)C1` (centres undefined) | -0.7692 | -24.81 |
| 27 | `CCc1ncc(C(=O)NCCn2c(C)cc(C)nc2=O)cn1` | 5.102 | -6.776 |
| 28 | `CCOCC(=O)NCC1CCN(Cc2ccsc2)CC1` | 4.523 | -0.877 |
| 29 | `Cc1ccc(CNS(=O)(=O)CC2=NC(=O)n3cccc3C2=O)cc1` | -1.639 | 7.63 |
| 30 | `CCCc1nc(CN2CCN(CC(O)c3ccccc3)CC2)no1` (centres undefined) | 1.88 | -5.709 |
| 31 | `CC(C)N(CCS(C)(=O)=O)Cc1csc(Cc2ccc(Cl)cc2)n1` | 4.046 | -8.364 |
| 32 | `O=c1cc(Cn2ccnc2)nc2n1CCCN(Cc1ccco1)C2` | 10.34 | 2.779 |
| 33 | `COc1cc(C)nc(N2CCN(C(=O)CNC(C)(C)C)CC2)n1` | 0 | 2.369 |
| 34 | `CN1CCN(CC2(O)CCCN(C(=O)Cc3cccc(O)c3)CC2)CC1` (centres undefined) | 9.398 | 8.723 |
| 35 | `CC(=O)NCc1noc2c1CN(Cc1cnn(C)c1)CC2` | 3.681 | 12.14 |
| 36 | `CN(C)C(=O)Cc1ccc(NC(=O)NC2CC2)cc1` | 6.667 | 2.019 |
| 37 | `COc1ccc(NC(=O)N2CCN(CCSc3ccccc3)CC2)cc1` | 5.155 | 21.99 |
| 38 | `NC(=O)N1Cc2nccn2CC(Cn2ncccc2=O)C1` (centres undefined) | 6.667 | -17.61 |
| 39 | `O=C(Nc1cnn(CCN2CCOCC2)c1)c1ccccc1O` | 4.183 | 15.34 |
| 40 | `Cc1ccc(-c2nc(CN3CCCC(Cn4cncn4)C3)no2)cc1` (centres undefined) | 6.464 | 3.523 |
| 41 | `CC(c1ccc(F)cc1F)N1CCN(CCN2CCCC2=O)CC1` (centres undefined) | 3.478 | -0.3623 |
| 42 | `CCOC(=O)NC(CNC(=O)c1cccnc1SC)CC(C)C` (centres undefined) | -2.326 | 15.25 |
| 43 | `Cc1nc(-c2ccco2)ccc1C(=O)NCCN1CCN(C)CC1` | -0.6135 | -5.07 |
| 44 | `CC(C)(C)c1cc(NC(=O)NCCc2nnc3n2CCC3)c(C#N)s1` | 3.191 | -1.08 |
| 45 | `COCCOc1ccnc(-c2noc([C@@H]3CCCN3C3CCC3)n2)c1` | 6.522 | -7.005 |
| 46 | `CC(C)(C)S(=O)(=O)CCNC1CSCCc2ccccc21` (centres undefined) | -1.299 | 13.34 |
| 47 | `Cn1cccc1C(=O)N1CCn2cc(CNC(=O)CC3CC3)nc2C1` | 4.918 | 12.97 |
| 48 | `CCCn1cc(S(=O)(=O)N[C@H]2CN(CCO)C[C@@H]2C2CC2)cn1` | 3.191 | -5.44 |
| 49 | `COCc1cn(C2CCN(C(=O)Cc3ccsc3)CC2)nn1` | -1.19 | -1.984 |
| 50 | `c1ccc2c(c1)N(CC1CCOC1)CC21CCN(c2cnccn2)CC1` (centres undefined) | 29.63 | -20.74 |
| 51 | `Cc1ccc(C)c2c(O)cc(CNCC(N)=O)nc12` | 8.235 | 2.145 |
| 52 | `CC(C(=O)Nc1ccon1)n1ccc(C(F)(F)F)n1` (centres undefined) | 3.727 | -10.54 |
| 53 | `COCCn1cc(CC(=O)Nc2nc[nH]n2)c2ccccc21` | 6.25 | -13.33 |
| 54 | `O=C(O)c1cc(S(=O)(=O)Nc2cccc(F)c2F)cc2c1OCCO2` | 4.624 | -23.33 |
| 55 | `CN(Cc1ccco1)C(=O)CN1CCOC(Cn2cncn2)C1` (centres undefined) | 4 | -8.073 |
| 56 | `CN(c1cccnc1N1CCCC1)S(=O)(=O)c1cnn(C)c1` | 7.937 | 8.16 |
| 57 | `Cc1ccccc1C(=O)NC[C@@H]1CCN(C(=O)C2(O)CCCC2)C[C@H]1O` | 6.667 | 4.666 |
| 58 | `O=C(C[C@H]1[C@H]2CN(Cc3ccc(F)cc3)C[C@@H]12)N1CCCC1` | 3.883 | -10.29 |
| 59 | `COc1ccccc1OCCCN(C)c1cc(C)nc(N)n1` | 0.5236 | -0.08725 |
| 60 | `Cc1noc(C2CCN(C(C)c3nc(C4CC4)no3)CC2)n1` (centres undefined) | 1.961 | 2.58 |
| 61 | `CCOCC1CN(Cc2ccc3c(c2)OCO3)Cc2ncn(C)c21` (centres undefined) | 6 | -2.748 |
| 62 | `CNC(=O)c1ccc2c(c1O)OC(C)(C)C2` | 10.1 | -7.239 |
| 63 | `O=C(Nc1nnc[nH]1)C(c1cccc(F)c1)N1CCOCC1` (centres undefined) | 6.667 | 0.3632 |
| 64 | `Cc1nccn1CC1CCCN1S(=O)(=O)Cc1ccc(F)cc1` (centres undefined) | 2.305 | -16.45 |
| 65 | `O=C(c1ncn2c(C3CCN(CC4CC4)CC3)ccnc12)N1CCCC1` | 8.589 | -19.09 |
| 66 | `O=C(c1cccnc1)N1CCOC(CCCc2ccccc2)C1` (centres undefined) | 4.255 | -5.564 |
| 67 | `COc1cc2nc3n(c(=O)c2cc1OC)CCN(C(=O)C1CC1)CC3` | 8.791 | -2.561 |
| 68 | `O=C(c1ccnnc1)N1C[C@H]2CCC[C@@H](OCc3cccnc3)[C@@H]2C1` | 6.863 | -7.72 |
| 69 | `CC(Cn1cccn1)NC(=O)NCCCN1CCc2ccccc2C1` (centres undefined) | 1.571 | 7.858 |
| 70 | `Cc1noc(C(C)N2CCN(Cc3cccc(C#N)c3)CC2)n1` (centres undefined) | 8.333 | -5.715 |
| 71 | `CCOc1ccc2[nH]c(=O)c(CN3CCCC(CO)(CO)C3)cc2c1` | 4.036 | -134.8 |
| 72 | `Cc1nc(NC(=O)c2c(-n3cnnn3)sc3c2CCC3)sc1C` | -2.97 | -20.55 |
| 73 | `COC[C@@]12CCC[C@@H]1CN(C(=O)COc1ccccc1OC)C2` | -2.116 | -6.02 |
| 74 | `Cc1nnc(NC(=O)CN2CCc3nn(C(C)C)c(=O)cc3C2)s1` | 1.143 | -8.187 |
| 75 | `CC(C)NC(=O)N[C@H]1C[C@@H](Cc2cc(CN3CCOCC3)on2)C1(C)C` | 2.488 | -23.9 |

The last 9 entries again:

| compound | TcHisRS | ClpP1P2 |
|---|---|---|
| `COc1cc2nc3n(c(=O)c2cc1OC)CCN(C(=O)C1CC1)CC3` | 8.791 | -2.561 |
| `O=C(c1ccnnc1)N1C[C@H]2CCC[C@@H](OCc3cccnc3)[C@@H]2C1` | 6.863 | -7.72 |
| `CC(Cn1cccn1)NC(=O)NCCCN1CCc2ccccc2C1` (centres undefined) | 1.571 | 7.858 |
| `Cc1noc(C(C)N2CCN(Cc3cccc(C#N)c3)CC2)n1` (centres undefined) | 8.333 | -5.715 |
| `CCOc1ccc2[nH]c(=O)c(CN3CCCC(CO)(CO)C3)cc2c1` | 4.036 | -134.8 |
| `Cc1nc(NC(=O)c2c(-n3cnnn3)sc3c2CCC3)sc1C` | -2.97 | -20.55 |
| `COC[C@@]12CCC[C@@H]1CN(C(=O)COc1ccccc1OC)C2` | -2.116 | -6.02 |
| `Cc1nnc(NC(=O)CN2CCc3nn(C(C)C)c(=O)cc3C2)s1` | 1.143 | -8.187 |
| `CC(C)NC(=O)N[C@H]1C[C@@H](Cc2cc(CN3CCOCC3)on2)C1(C)C` | 2.488 | -23.9 |